Patent publication US6541612B2 (Wyeth, priority 1993, dated 2003)
For at least one compound, name, drawing or mass did not settle the structure.

How the values were obtained:
[1] = tested on: antibody specific for rapamycin; test: Competitive inhibition ELISA for rapamycin; assay type: binding, mouse; details: for OPTICAL DENSITY × 1000, 1 / OPTICAL DENSITY × 1000, 2 / OPTICAL DENSITY × 1000, Avg: 450 nm
Candida albicans = details: both in vitro and in vivo; cited from earlier work
[2] = tested on: experimental allergic encephalomyelitis model; details: a model for multiple sclerosis; cited from earlier work
adjuvant arthritis model = details: a model for rheumatoid arthritis; cited from earlier work
IgE-like antibodies = details: in vivo; cited from earlier work
[3] = Free RAPAMYCIN 0.0005 (first row prints μM)
[4] = Free RAPAMYCIN 0.005 (first row prints μM)
[5] = Free RAPAMYCIN 0.05 (first row prints μM)
[6] = Free RAPAMYCIN 0.5 (first row prints μM)
[7] = Free RAPAMYCIN 5 (first row prints μM)

CO[C@H]1C[C@@H]2CC[C@@H](C)[C@@](O)(O2)C(=O)C(=O)N2CCCC[C@H]2C(=O)O[C@H]([C@H](C)C[C@@H]2CC[C@@H](O)[C@H](OC)C2)CC(=O)[C@H](C)/C=C(\C)[C@@H](O)[C@@H](OC)C(=O)[C@H](C)C[C@H](C)/C=C/C=C/C=C/1C [rapamycin]
% Inhibition ([1]; Free RAPAMYCIN 10 μM): 74.1% | OPTICAL DENSITY × 1000, 1 ([1]; Free RAPAMYCIN 10 μM): 158 | OPTICAL DENSITY × 1000, 2 ([1]; Free RAPAMYCIN 10 μM): 158 | OPTICAL DENSITY × 1000, Avg ([1]; Free RAPAMYCIN 10 μM): 158 | % Inhibition [1, 3]: 0.6% | OPTICAL DENSITY × 1000, 1 [1, 3]: 601 | OPTICAL DENSITY × 1000, 2 [1, 3]: 611 | OPTICAL DENSITY × 1000, Avg [1, 3]: 606 | % Inhibition [1, 4]: 11.9% | OPTICAL DENSITY × 1000, 1 [1, 4]: 528 | OPTICAL DENSITY × 1000, 2 [1, 4]: 546 | OPTICAL DENSITY × 1000, Avg [1, 4]: 537 | % Inhibition [1, 5]: 18.4% | OPTICAL DENSITY × 1000, 1 [1, 5]: 494 | OPTICAL DENSITY × 1000, 2 [1, 5]: 501 | OPTICAL DENSITY × 1000, Avg [1, 5]: 498 | % Inhibition [1, 6]: 48.6% | OPTICAL DENSITY × 1000, 1 [1, 6]: 304 | OPTICAL DENSITY × 1000, 2 [1, 6]: 322 | OPTICAL DENSITY × 1000, Avg [1, 6]: 313 | % Inhibition [1, 7]: 69.2% | OPTICAL DENSITY × 1000, 1 [1, 7]: 182 | OPTICAL DENSITY × 1000, 2 [1, 7]: 194 | fluorescence polarization in the presence of analyte (RAP-42-OVAF2#1; 100 nM analyte, 124 mP in the absence of analyte, 500 μL 10 μg/mL MoAb + 500 μL 20 nM secorapamycin-fluorescein): 120 mP | effect on binding of secorapamycin fluorescein derivative to RAP-42-OVAF2#1 (in words) (RAP-42-OVAF2#1; analyte 0 to 100 nM): no effect | antifungal activity (Candida albicans): antifungal activity | efficacy in the experimental allergic encephalomyelitis model [2]: effective | efficacy in the adjuvant arthritis model (adjuvant arthritis model): effective | formation of IgE-like antibodies (IgE-like antibodies): effectively inhibited
